Experimental data from article PMC12622476.
No constants are given. Whether binding was seen depends on the method and setting. Binding seen in cells or lysates may run through a third protein. Some results given as binding are weak or reduced against the parent protein; the word gives no strength.

Amino acid sequences for entries named in this document (tags omitted).
UniProt Q61221: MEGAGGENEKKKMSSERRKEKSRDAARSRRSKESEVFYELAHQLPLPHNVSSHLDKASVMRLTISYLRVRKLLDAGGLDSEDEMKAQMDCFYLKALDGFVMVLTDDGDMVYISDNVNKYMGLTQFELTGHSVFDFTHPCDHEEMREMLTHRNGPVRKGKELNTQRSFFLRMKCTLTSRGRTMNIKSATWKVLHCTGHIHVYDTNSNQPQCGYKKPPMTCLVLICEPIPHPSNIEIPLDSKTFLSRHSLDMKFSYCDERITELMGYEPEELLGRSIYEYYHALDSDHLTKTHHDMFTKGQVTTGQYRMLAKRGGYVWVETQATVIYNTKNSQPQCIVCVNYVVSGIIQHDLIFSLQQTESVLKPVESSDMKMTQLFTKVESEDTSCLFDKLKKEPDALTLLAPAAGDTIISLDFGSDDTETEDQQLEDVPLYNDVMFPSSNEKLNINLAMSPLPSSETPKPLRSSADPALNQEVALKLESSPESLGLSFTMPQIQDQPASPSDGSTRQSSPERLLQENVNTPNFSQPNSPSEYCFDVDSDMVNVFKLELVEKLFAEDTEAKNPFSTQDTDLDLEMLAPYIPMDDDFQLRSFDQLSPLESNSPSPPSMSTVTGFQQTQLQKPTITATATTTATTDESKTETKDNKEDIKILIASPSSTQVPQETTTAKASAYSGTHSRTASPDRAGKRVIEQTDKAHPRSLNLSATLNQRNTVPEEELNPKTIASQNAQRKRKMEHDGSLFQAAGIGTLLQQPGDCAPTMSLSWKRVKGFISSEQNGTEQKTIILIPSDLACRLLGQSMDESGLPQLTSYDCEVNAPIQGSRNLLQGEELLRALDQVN
UniProt Q9WTV6: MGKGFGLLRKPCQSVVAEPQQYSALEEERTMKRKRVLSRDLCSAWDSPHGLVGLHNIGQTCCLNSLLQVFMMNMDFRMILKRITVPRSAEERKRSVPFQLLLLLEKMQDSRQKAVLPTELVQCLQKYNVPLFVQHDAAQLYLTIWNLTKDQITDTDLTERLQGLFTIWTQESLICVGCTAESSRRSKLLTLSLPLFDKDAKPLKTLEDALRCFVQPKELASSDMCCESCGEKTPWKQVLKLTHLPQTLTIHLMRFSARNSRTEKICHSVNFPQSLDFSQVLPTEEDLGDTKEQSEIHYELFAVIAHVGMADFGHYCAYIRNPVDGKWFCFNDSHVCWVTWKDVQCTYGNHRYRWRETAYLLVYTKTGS

Molecular target: HIF-1α (mouse (endogenous in SCMECs)) (UniProt Q61221)
Test: co-IP; endogenous proteins in SCMEC lysate (NP-40 lysis buffer) after AGAPIR agomir treatment; anti-USP18, anti-HIF-1α or control IgG pre-coupled to protein A/G PLUS-agarose beads, 4 °C overnight; western blot

binding: binds
Substance: USP18 (from UniProt Q9WTV6 1-368) (enzyme)
